The results in this text go back to article PMC6488640.

By UniProt entry, the sequences of proteins in these tests, tags left out. Where a name states a change or a piece, a line headed by the entry shows the natural chain unless it says otherwise.
UniProt Q13309: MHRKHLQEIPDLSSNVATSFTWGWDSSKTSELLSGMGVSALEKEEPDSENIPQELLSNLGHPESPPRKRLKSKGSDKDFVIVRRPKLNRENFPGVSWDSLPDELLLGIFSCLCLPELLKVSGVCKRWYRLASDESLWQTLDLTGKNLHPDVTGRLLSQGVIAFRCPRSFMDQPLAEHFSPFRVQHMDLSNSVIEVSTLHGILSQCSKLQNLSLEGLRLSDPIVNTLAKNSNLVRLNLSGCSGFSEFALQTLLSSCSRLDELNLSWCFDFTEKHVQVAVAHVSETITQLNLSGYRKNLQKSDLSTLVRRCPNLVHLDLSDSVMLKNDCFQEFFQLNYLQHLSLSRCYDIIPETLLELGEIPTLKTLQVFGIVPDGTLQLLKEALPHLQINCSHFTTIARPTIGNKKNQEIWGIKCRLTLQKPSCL
UniProt Q93009: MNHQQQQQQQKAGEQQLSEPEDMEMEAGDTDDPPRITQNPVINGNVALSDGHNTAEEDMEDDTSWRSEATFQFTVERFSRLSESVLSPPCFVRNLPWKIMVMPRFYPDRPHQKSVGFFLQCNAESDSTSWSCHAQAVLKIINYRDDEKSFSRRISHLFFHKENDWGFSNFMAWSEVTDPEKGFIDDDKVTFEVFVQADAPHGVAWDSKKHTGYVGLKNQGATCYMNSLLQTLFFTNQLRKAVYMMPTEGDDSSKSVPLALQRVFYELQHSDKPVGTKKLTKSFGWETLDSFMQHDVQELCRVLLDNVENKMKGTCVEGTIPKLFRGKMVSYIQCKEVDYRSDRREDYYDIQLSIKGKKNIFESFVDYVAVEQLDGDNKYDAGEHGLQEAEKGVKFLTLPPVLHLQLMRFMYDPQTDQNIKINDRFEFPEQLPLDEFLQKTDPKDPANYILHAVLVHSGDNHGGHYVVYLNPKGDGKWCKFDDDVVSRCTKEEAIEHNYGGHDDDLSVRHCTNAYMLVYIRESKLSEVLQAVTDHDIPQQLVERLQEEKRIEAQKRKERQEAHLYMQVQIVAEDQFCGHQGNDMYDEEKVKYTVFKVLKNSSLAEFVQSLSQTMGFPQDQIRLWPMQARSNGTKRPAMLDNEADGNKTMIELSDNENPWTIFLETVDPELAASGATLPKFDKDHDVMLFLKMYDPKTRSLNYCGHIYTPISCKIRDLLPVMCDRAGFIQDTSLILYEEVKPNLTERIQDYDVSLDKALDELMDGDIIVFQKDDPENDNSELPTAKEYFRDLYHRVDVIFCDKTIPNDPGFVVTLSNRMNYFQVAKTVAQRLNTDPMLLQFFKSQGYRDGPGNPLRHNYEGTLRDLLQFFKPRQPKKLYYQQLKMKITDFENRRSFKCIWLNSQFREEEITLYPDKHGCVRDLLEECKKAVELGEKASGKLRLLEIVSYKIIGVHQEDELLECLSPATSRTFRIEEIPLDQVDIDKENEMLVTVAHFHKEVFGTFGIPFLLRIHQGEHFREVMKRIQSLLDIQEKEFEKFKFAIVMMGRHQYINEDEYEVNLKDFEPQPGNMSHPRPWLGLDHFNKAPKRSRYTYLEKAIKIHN

These are yes or no findings as the source states them, for the method shown. In cells and extracts the contact can be indirect. Some binding calls cover weakened binding; strength is not graded here.

In this test the target is S-phase kinase-associated protein 2 (SKP2), endogenous (human (endogenous in KBM5 and KBM5-T315I)) (UniProt Q13309). The experiment in a line: co-IP; screen of endogenous SKP2 against a panel of DUBs in KBM5-T315I cell extract; proteins interacting with SKP2 detected by western blot; antibody coupled to Dynabeads, 4 °C 1-2 h, washed with PBS-T. On the technique in general: In western blotting, separated proteins are transferred to a membrane and probed.

With “USP7, endogenous (from UniProt Q93009 1-1102) (enzyme)”, the binding entry was “binds”.

B1: USP13, endogenous (enzyme, UniProt Q92995 1-863)
chain: MQRRGALFGMPGGSGGRKMAAGDIGELLVPHMPTIRVPRSGDRVYKNECAFSYDSPNSEGGLYVCMNTFLAFGREHVERHFRKTGQSVYMHLKRHVREKVRGASGGALPKRRNSKIFLDLDTDDDLNSDDYEYEDEAKLVIFPDHYEIALPNIEELPALVTIACDAVLSSKSPYRKQDPDTWENELPVSKYANNLTQLDNGVRIPPSGWKCARCDLRENLWLNLTDGSVLCGKWFFDSSGGNGHALEHYRDMGYPLAVKLGTITPDGADVYSFQEEEPVLDPHLAKHLAHFGIDMLHMHGTENGLQDNDIKLRVSEWEVIQESGTKLKPMYGPGYTGLKNLGNSCYLSSVMQAIFSIPEFQRAYVGNLPRIFDYSPLDPTQDFNTQMTKLGHGLLSGQYSKPPVKSELIEQVMKEEHKPQQNGISPRMFKAFVSKSHPEFSSNRQQDAQEFFLHLVNLVERNRIGSENPSDVFRFLVEERIQCCQTRKVRYTERVDYLMQLPVAMEAATNKDELIAYELTRREAEANRRPLPELVRAKIPFSACLQAFSEPENVDDFWSSALQAKSAGVKTSRFASFPEYLVVQIKKFTFGLDWVPKKFDVSIDMPDLLDINHLRARGLQPGEEELPDISPPIVIPDDSKDRLMNQLIDPSDIDESSVMQLAEMGFPLEACRKAVYFTGNMGAEVAFNWIIVHMEEPDFAEPLTMPGYGGAASAGASVFGASGLDNQPPEEIVAIITSMGFQRNQAIQALRATNNNLERALDWIFSHPEFEEDSDFVIEMENNANANIISEAKPEGPRVKDGSGTYELFAFISHMGTSTMSGHYICHIKKEGRWVIYNDHKVCASERPPKDLGYMYFYRRIPS
For B1, the binding entry was “binds”.
